# The list shows a part of the results.
# B1: R2-fiber (Pseudomonas aeruginosa), Q9S576 (protein)
# chain: HHHHHHKVAKDLVVSLAYQVRTEDGVLVDESPVSAPLDYLHGHGSLISGLETALEGHEVGDKFDVAVGANDAYGQYDENLVQRVPKDVFMGVDELQVGMRFLAETDQGPVPVEITAVEDDHVVVDGNHMLAGQNLKFNVEVVAIREATEEELAHGHVHGAHDHHHDHDHDGCCGGHGHDHGHEHGGEGCCGGKGNGGCGCHENLYFQGVTAGMALAATDIPGLDASKLVSGVLAEQRLPVFARGLATAVSNSSDPNTATVPLMLTNHANGPVAGRYFYIQSMFYPDQNGNASQIATSYNATSEMYVRVSYAANPSIREWLPWQRCDIGGSFTKEADGELPGGVNLDSMVTSGWWSQSFTAQAASGANYPIVRAGLLHVYAASSNFIYQTYQAYDGESFYFRCRHSNTWFPWRRMWHGGDFNPSDYLLKSGFYWNALPGKPATFPPSAHNHDVGQLTSGILPLARGGVGSNTAAGARSTIGAGVPATASLGASGWWRDNDTGLIRQWGQVTCPADADASITFPIPFPTLCLGGYANQTSAFHPGTDASTGFRGATTTTAVIRNGYFAQAVLSWEAFGR
# Columns and labels:
# Experiment in all cases: glycan array binding signal (z-score within array); higher = stronger binding
# Details in all cases: glycan notation: IUPAC condensed, linker removed
# [1] = biological target: GlcNAc(b1-3)Gal(b1-4)GlcNAc(b1-3)Gal(b1-4)GlcNAc(b1-3)Gal(b1-4)GlcNAc(b1-3)Gal(b1-4)GlcNAc(b1-2)[GlcNAc(b1-3)Gal(b1-4)GlcNAc(b1-3)Gal(b1-4)GlcNAc(b1-3)Gal(b1-4)GlcNAc(b1-3)Gal(b1-4)GlcNAc(b1-6)]Man(a1-6)[GlcNAc(b1-3)Gal(b1-4)GlcNAc(b1-3)Gal(b1-4)GlcNAc(b1-3)Gal(b1-4)GlcNAc(b1-3)Gal(b1-4)GlcNAc(b1-2)Man(a1-3)]Man(b1-4)GlcNAc(b1-4)[Fuc(a1-6)]GlcNAc
# Procedure, shortened: (§1)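 The binding signal is a Z-score computed within each array. Data were drawn from 3228 arrays in the Consortium for Functional Glycomics database, restricted to those with a known protein sequence. Scores were averaged over arrays of the same protein sequence at different concentrations or buffers, and over linkers, and negative values can be taken as non-binding.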
# [2] = biological target: GlcNAc(b1-3)Gal(b1-4)GlcNAc(b1-3)Gal(b1-4)GlcNAc(b1-3)GalNAc
# Procedure, shortened: as §1
# [3] = biological target: GlcNAc(b1-3)Gal(b1-4)GlcNAc(b1-3)GalNAc
# Procedure, shortened: as §1
# [4] = biological target: GlcNAc(b1-3)Gal(b1-4)GlcNAc(b1-3)[GlcNAc(b1-3)Gal(b1-4)GlcNAc(b1-3)]GalNAc
# Procedure, shortened: as §1
# [5] = biological target: GlcNAc(b1-3)Gal(b1-4)GlcNAc(b1-6)[Gal(b1-3)]GalNAc
# Procedure, shortened: as §1
# [6] = biological target: GlcNAc(b1-3)Gal(b1-4)GlcNAc(b1-6)[GlcNAc(b1-3)Gal(b1-3)]GalNAc
# Procedure, shortened: as §1
# [7] = biological target: GlcNAc(b1-3)Gal(b1-4)GlcNAc(b1-6)[GlcNAc(b1-3)]Gal(b1-4)GlcNAc
# Procedure, shortened: as §1
# GlcNAc(b1-3)GalNAc = biological target: GlcNAc(b1-3)GalNAc
# Procedure, shortened: as §1
# GlcNAc(b1-3)Man = biological target: GlcNAc(b1-3)Man
# Procedure, shortened: as §1
# [8] = biological target: GlcNAc(b1-3)[GlcNAc(b1-4)][GlcNAc(b1-6)]GlcNAc
# Procedure, shortened: as §1
# [9] = biological target: GlcNAc(b1-3)[GlcNAc(b1-6)]Gal(b1-4)GlcNAc
# Procedure, shortened: as §1
# [10] = biological target: GlcNAc(b1-3)[GlcNAc(b1-6)]GalNAc
# Procedure, shortened: as §1
# [11] = biological target: GlcNAc(b1-4)Gal(b1-4)GlcNAc
# Procedure, shortened: as §1
# GlcNAc(b1-4)GlcNAc = biological target: GlcNAc(b1-4)GlcNAc
# Procedure, shortened: as §1
# [12] = biological target: GlcNAc(b1-4)GlcNAc(b1-4)GlcNAc
# Procedure, shortened: as §1
# [13] = biological target: GlcNAc(b1-4)GlcNAc(b1-4)GlcNAc(b1-4)GlcNAc(b1-4)GlcNAc
# Procedure, shortened: as §1
# [14] = biological target: GlcNAc(b1-4)GlcNAc(b1-4)GlcNAc(b1-4)GlcNAc(b1-4)GlcNAc(b1-4)GlcNAc
# Procedure, shortened: as §1
# [15] = biological target: GlcNAc(b1-4)[GlcNAc(b1-6)]GalNAc
# Procedure, shortened: as §1
# [16] = biological target: GlcNAc(b1-6)Gal(b1-4)GlcNAc
# Procedure, shortened: as §1
# GlcNAc(b1-6)GalNAc = biological target: GlcNAc(b1-6)GalNAc
# Procedure, shortened: as §1
# [17] = biological target: GlcNAc6S(b1-3)Gal(b1-4)GlcNAc
# Procedure, shortened: as §1
# Kdn(a2-3)Gal(b1-3)GalNAc = biological target: Kdn(a2-3)Gal(b1-3)GalNAc
# Procedure, shortened: as §1
# Kdn(a2-3)Gal(b1-3)GlcNAc = biological target: Kdn(a2-3)Gal(b1-3)GlcNAc
# Procedure, shortened: as §1
# Kdn(a2-3)Gal(b1-4)Glc = biological target: Kdn(a2-3)Gal(b1-4)Glc
# Procedure, shortened: as §1
# Kdn(a2-3)Gal(b1-4)GlcNAc = biological target: Kdn(a2-3)Gal(b1-4)GlcNAc
# Procedure, shortened: as §1
# [18] = biological target: Kdn(a2-3)Gal(b1-4)[Fuc(a1-3)]GlcNAc
# Procedure, shortened: as §1
# Kdn(a2-6)Gal(b1-4)GlcNAc = biological target: Kdn(a2-6)Gal(b1-4)GlcNAc
# Procedure, shortened: as §1
# [19] = biological target: Man(a1-2)Man(a1-2)Man(a1-3)Man
# Procedure, shortened: as §1
# [20] = biological target: Man(a1-2)Man(a1-2)Man(a1-6)[Man(a1-3)]Man
# Procedure, shortened: as §1
# Man(a1-2)Man(a1-3)Man = biological target: Man(a1-2)Man(a1-3)Man
# Procedure, shortened: as §1
binder,measurement,setting,value
B1,glycan array binding signal (z-score),[1],0.287
same,glycan array binding signal (z-score),[2],-0.639
same,glycan array binding signal (z-score),[3],-0.486
same,glycan array binding signal (z-score),[4],-0.041
same,glycan array binding signal (z-score),[5],0.122
same,glycan array binding signal (z-score),[6],1.3
same,glycan array binding signal (z-score),[7],-0.821
same,glycan array binding signal (z-score),GlcNAc(b1-3)GalNAc,-0.184
same,glycan array binding signal (z-score),GlcNAc(b1-3)Man,-0.043
same,glycan array binding signal (z-score),[8],-0.221
same,glycan array binding signal (z-score),[9],-0.419
same,glycan array binding signal (z-score),[10],0.283
same,glycan array binding signal (z-score),[11],-0.614
same,glycan array binding signal (z-score),GlcNAc(b1-4)GlcNAc,0.198
same,glycan array binding signal (z-score),[12],0.32
same,glycan array binding signal (z-score),[13],-0.085
same,glycan array binding signal (z-score),[14],-0.525
same,glycan array binding signal (z-score),[15],-0.684
same,glycan array binding signal (z-score),[16],-0.379
same,glycan array binding signal (z-score),GlcNAc(b1-6)GalNAc,-0.326
same,glycan array binding signal (z-score),[17],-0.144
same,glycan array binding signal (z-score),Kdn(a2-3)Gal(b1-3)GalNAc,0.063
same,glycan array binding signal (z-score),Kdn(a2-3)Gal(b1-3)GlcNAc,-0.223
same,glycan array binding signal (z-score),Kdn(a2-3)Gal(b1-4)Glc,-0.616
same,glycan array binding signal (z-score),Kdn(a2-3)Gal(b1-4)GlcNAc,-0.058
same,glycan array binding signal (z-score),[18],0.717
same,glycan array binding signal (z-score),Kdn(a2-6)Gal(b1-4)GlcNAc,-0.655
same,glycan array binding signal (z-score),[19],1.05
same,glycan array binding signal (z-score),[20],0.479
same,glycan array binding signal (z-score),Man(a1-2)Man(a1-3)Man,0.221

# Shown with tabs: entries from further up.
binder	measurement	setting	value
B1	glycan array binding signal (z-score)	[7]	-0.821
same	glycan array binding signal (z-score)	Kdn(a2-3)Gal(b1-4)Glc	-0.616
